# The list shows a part of the results. Repeats in this data set agree poorly, so a single value says little.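 Human kidney-derived cells stably carry a construct in which eight TEAD-binding elements drive luciferase, measured by luminescence in a drug-repurposing library screen. A hit is any compound whose signal exceeds the plate mean by more than five robust Z scores.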
# System: HEK293A TEAD-LUC reporter
# Assay: TEAD-luciferase reporter activity (YAP activation), robust Z score vs plate; higher = stronger YAP/TEAD activation
# Conditions: 24 h
SMILES,TEAD-luciferase reporter activity (compound concentration: 200 nM),TEAD-luciferase reporter activity (compound concentration: 2 uM),TEAD-luciferase reporter activity (compound concentration: 10 uM)
COc1nsc(NC(=O)N2C[C@H]3C[C@H](N(C)c4ncnc5[nH]ccc45)C[C@H]3C2)n1,inactive: -1.72,inactive: -0.772,inactive: -0.0372
Cc1cnc(CNC(=O)c2c(=O)c3ccc(N4CCCN(C)CC4)nc3n3c2sc2ccccc23)cn1,–,inactive: -0.633,inactive: 1.07
Cn1cc(-c2cccc3cc(C(=O)NC(=N)N)ccc23)cn1,inactive: 3.54,inactive: 1.05,inactive: 1.62
Cc1ncc([N+](=O)[O-])n1CCCN1CCN(C)CC1,inactive: 1.25,inactive: -1.14,inactive: -1.61
CCCCCCCCCCCCCCCCCCCCCCCCCC(=O)O,inactive: -1.16,inactive: 0.697,inactive: -0.0531
CSCC1CN(/N=C/c2ccc([N+](=O)[O-])o2)C(=O)O1 (centres undefined) [Nifuratel],inactive: 1.84,inactive: -1.49,inactive: 1.84
Cc1noc(-c2ccc(CSCCC(=O)O)cc2)c1NC(=O)OC(C)c1ccccc1Cl (centres undefined),inactive: -1.07,inactive: -1.37,inactive: -2.07
C[C@@H](O)[C@H]1C(=O)N2C(C(=O)O)=C([C@@H]3CCCO3)S[C@H]12 [Faropenem sodium],inactive: -0.606,inactive: -0.615,inactive: 0.873
CO/N=C(\C(=O)N[C@@H]1C(=O)N2C(C(=O)OCOC(=O)C(C)(C)C)=C(/C=C\c3scnc3C)CS[C@H]12)c1csc(N)n1 [Cefditoren Pivoxil],inactive: -1.05,–,inactive: -2.2
CO/N=C(\C(=O)N[C@@H]1C(=O)N2C(C(=O)OCOC(=O)C(C)(C)C)=C(/C=C\c3scnc3C)CS[C@H]12)c1csc(N)n1 [cefditoren pivoxil],–,inactive: -2.5,–
[I][Zn][I],inactive: 0.852,inactive: -1.44,inactive: 3.22
Nc1cc2[nH]cnc2c(=O)[nH]1 [3-Deazaguanine],inactive: -0.41,inactive: -1.38,inactive: -0.774
Nc1ncnc2c1c(-c1cccc(OCc3ccccc3)c1)cn2[C@H]1C[C@@H](CN2CCC2)C1,inactive: 0.607,inactive: -1.55,inactive: -3.16
Nc1cc(Cl)c(N=C2NCCN2)c(Cl)c1 [Pharmaprojects No. 1758],inactive: 1.2,inactive: 0.894,inactive: 4
COc1ccc(OCC(O)CNC(C)C)cc1 (centres undefined),inactive: -0.875,inactive: 0.936,inactive: 1.56
CCCCCCCCCC(=O)N[C@@H](Cc1c[nH]c2ccccc12)C(=O)N[C@H](CC(N)=O)C(=O)N[C@@H](CC(=O)O)C(=O)N[C@@H]1C(=O)NCC(=O)N[C@@H](CCCN)C(=O)N[C@@H](CC(=O)O)C(=O)N[C@H](C)C(=O)N[C@@H](CC(=O)O)C(=O)NCC(=O)N[C@H](CO)C(=O)N[C@@H]([C@@H](C)CC(=O)O)C(=O)N[C@@H](CC(=O)c2ccccc2N)C(=O)O[C@@H]1C [Daptomycin],inactive: -0.554,inactive: -2.84,inactive: -0.312
Cc1ccc(Cn2c(NC3CCNCC3)nc3cccnc32)o1,inactive: -0.0943,inactive: 0.925,inactive: -0.351
CC(C(=O)O)c1ccc2c(c1)oc1ccc(Cl)cc12 (centres undefined),inactive: -0.435,inactive: -0.602,inactive: 1.01
CN(C)CCN1CCN(c2cccc(Cl)c2)C1=O,inactive: 3.52,inactive: 3.25,inactive: 0.641
OCC1COC(CI)O1 (centres undefined) [Domiodol],inactive: 0.0895,inactive: 1.08,inactive: 3.15
CCCCCCCC/C=C\CCCCCCC(O)C(=O)O (centres undefined) [Minerval],inactive: -1.85,inactive: 0.143,inactive: 0.135
CN(C)C(=O)NC1(c2ccccc2)CCN(CCC[C@]2(c3ccc(Cl)c(Cl)c3)CCCN(C(=O)c3ccccc3)C2)CC1,inactive: -1.22,inactive: 0.802,inactive: 0.781
Cc1cc(C(N)=O)ccc1-n1c(CCC(=O)O)ccc1-c1ccc(-n2ccnc2)cc1,inactive: 0.127,inactive: 0.368,inactive: -1.55
O=C(Nc1nc2cccc(-c3ccc(CN4CCS(=O)(=O)CC4)cc3)n2n1)C1CC1 [Filgotinib],inactive: -2.25,inactive: 1.14,inactive: -0.311
O=C(N[C@@H](Cc1ccccc1)[C@@H](O)C(=O)N1C[C@@H](O)[C@@H](O)C1)c1cc2cc(Cl)ccc2[nH]1 [ingliforib],inactive: 0.274,inactive: 0.616,inactive: -1.47
CNS(=O)(=O)c1cc(OC)c(OC)c(C(=O)NCC2CCCN2C)c1 (centres undefined) [sulverapride],inactive: -1.12,inactive: 0.0384,inactive: -0.673

# Exported tab-delimited: entries from further up
SMILES	TEAD-luciferase reporter activity (compound concentration: 200 nM)	TEAD-luciferase reporter activity (compound concentration: 2 uM)	TEAD-luciferase reporter activity (compound concentration: 10 uM)
COc1ccc(OCC(O)CNC(C)C)cc1 (centres undefined)	inactive: -0.875	inactive: 0.936	inactive: 1.56
CN(C)C(=O)NC1(c2ccccc2)CCN(CCC[C@]2(c3ccc(Cl)c(Cl)c3)CCCN(C(=O)c3ccccc3)C2)CC1	inactive: -1.22	inactive: 0.802	inactive: 0.781

# Reference: the supplement of paper PMC10735217
